Reference: patent US20200010910A1, “Cytotoxic Chemotherapy-Based Predictive Assays for Acute Myeloid Leukemia” (The Regents of The University of California, priority 2017, published 2020)

Tested on: A549
Test: MTT assay IC50
Assay type: cell-based, human
Experimental: Six non-small cell lung cancer (NSCLC) cell lines were treated in culture with [^14C]carboplatin. Carboplatin-DNA monoadduct levels over time were determined by measuring ^14C content in genomic DNA with accelerator mass spectrometry (AMS). Cellular sensitivity to carboplatin and cisplatin was analyzed by the MTT assay (Henderson et al., International Journal of Cancer 2011).
Human NSCLC cell lines H23, H460, H727, HCC827, H1975, and A549 were purchased from ATCC and were cultured with the recommended medium. The MTT assay was performed as previously reported to determine the drug concentration required to inhibit cell growth by 50% (IC50) of cisplatin and carboplatin. [^14C]Carboplatin (at 53 mCi/mmol) was mixed with unlabeled carboplatin to achieve the specific activities required for microdoses and therapeutic doses. Table 1 lists the six NSCLC cell lines and summarizes their IC50 characteristics, induced carboplatin-DNA monoadducts when treated with [^14C]carboplatin, and p and r^2 values for correlation analysis to the IC50 concentrations.

## N.N.[Cl][Pt][Cl] [cisplatin]
  IC50: 26.3 µM
